The values below are quoted from earlier work in patent publication US8021652B2, “Biodegradable branched polylactide derivatives capable of forming polymeric micelles, and their preparation method and use” (Samyang Corporation, priority 2003, dated 2011).

The conditions of the data set: drug alone in water, without polymer.

For the molecule `CC(=O)O[C@H]1C(=O)[C@@]2(C)[C@H]([C@H](OC(=O)c3ccccc3)[C@]3(O)C[C@H](OC(=O)[C@H](O)[C@@H](NC(=O)c4ccccc4)c4ccccc4)C(C)=C1C3(C)C)[C@]1(OC(C)=O)CO[C@@H]1C[C@@H]2O` [paclitaxcel], the Water solubility was no more than 10 µg/mL.
